Measurements taken from patent US20230151073A1, “FIBRILLATION RESISTANT CALCITONIN PEPTIDES AND USES THEREOF” (Purdue Research Foundation, priority 2020, published 2023).

Experiment: HDX-MS for monomeric hCT (no fibrillation, control)
Assay type: physicochemical
Conditions: less than 2 min of D2O exposure

## human calcitonin [hCT]
  maximum percent deuterium uptake, fragment 1-8: 62%
  maximum percent deuterium uptake, fragment 1-11: 66%
  maximum percent deuterium uptake, fragment 12-19: 59%
  maximum percent deuterium uptake, fragment 16-28: 60%
  maximum percent deuterium uptake, fragment 20-32: 63%
  maximum percent deuterium uptake, fragment 26-32: 60%
